Source: PMC12578312
Results are given in words; binding and its absence hold for the method and conditions named. In cells and extracts the contact can be indirect. Some entries that bind do so weakly or less than the wild type.

By UniProt entry, the sequences of proteins in these tests, tags left out.
UniProt Q9H6L5: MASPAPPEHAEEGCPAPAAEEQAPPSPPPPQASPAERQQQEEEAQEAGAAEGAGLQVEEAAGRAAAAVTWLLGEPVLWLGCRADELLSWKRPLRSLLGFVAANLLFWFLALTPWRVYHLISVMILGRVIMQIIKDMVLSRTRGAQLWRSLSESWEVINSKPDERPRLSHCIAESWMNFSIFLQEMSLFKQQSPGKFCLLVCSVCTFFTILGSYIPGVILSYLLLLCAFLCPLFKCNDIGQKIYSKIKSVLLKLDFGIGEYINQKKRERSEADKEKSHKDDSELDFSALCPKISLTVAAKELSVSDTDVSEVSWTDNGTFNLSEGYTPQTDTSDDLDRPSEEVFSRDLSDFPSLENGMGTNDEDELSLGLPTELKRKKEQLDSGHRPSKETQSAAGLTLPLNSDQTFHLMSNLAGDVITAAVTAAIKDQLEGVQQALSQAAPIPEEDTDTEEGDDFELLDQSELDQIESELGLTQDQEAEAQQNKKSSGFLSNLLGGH

Key:
FAM134B-V5 [1] = target: FAM134B-V5 (UniProt Q9H6L5); assay: co-IP; HeLa WT cells transfected with FAM134B-V5 alone or with ATZ-HA; 100 nM BafA1 for 6 h; lysed with 2% CHAPS; V5-agarose beads at 4°C overnight; western blot of endogenous proteins
FAM134B-V5 [2] = target: FAM134B-V5 (UniProt Q9H6L5); assay: co-IP; HeLa VAPA/B DKO cells transfected with FAM134B-V5 alone or with ATZ-HA; 100 nM BafA1 for 6 h; lysed with 2% CHAPS; V5-agarose beads at 4°C overnight; western blot of endogenous proteins
FAM134B-V5 [3] = target: FAM134B-V5 (UniProt Q9H6L5); assay: co-IP; HEK293 cells transfected with FAM134B-V5 alone, with ATZ-HA or with NHK-HA; 100 nM BafA1 for 6 h; lysed with 2% CHAPS in HEPES buffer pH 6.8; V5-agarose beads at 4°C overnight, washes with 0.5% CHAPS; western blot of endogenous and HA-tagged proteins

binding (FAM134B-V5 [1]): binds
binding (FAM134B-V5 [2]): binds
binding (FAM134B-V5 [3]): binds
B1: calnexin (CNX) (protein, UniProt P27824 21-592)
chain: HDGHDDDVIDIEDDLDDVIEEVEDSKPDTTAPPSSPKVTYKAPVPTGEVYFADSFDRGTLSGWILSKAKKDDTDDEIAKYDGKWEVEEMKESKLPGDKGLVLMSRAKHHAISAKLNKPFLFDTKPLIVQYEVNFQNGIECGGAYVKLLSKTPELNLDQFHDKTPYTIMFGPDKCGEDYKLHFIFRHKNPKTGIYEEKHAKRPDADLKTYFTDKKTHLYTLILNPDNSFEILVDQSVVNSGNLLNDMTPPVNPSREIEDPEDRKPEDWDERPKIPDPEAVKPDDWDEDAPAKIPDEEATKPEGWLDDEPEYVPDPDAEKPEDWDEDMDGEWEAPQIANPRCESAPGCGVWQRPVIDNPNYKGKWKPPMIDNPSYQGIWKPRKIPNPDFFEDLEPFRMTPFSAIGLELWSMTSDIFFDNFIICADRRIVDDWANDGWGLKKAADGAAEPGVVGQMIEAAEERPWLWVVYILTVALPVFLVILFCCSGKKQTSGMEYKKTDAPQPDVKEEEEEKEEEKDKGDEEEEGEEKLEEKQKSDAEEDGGTVSQEEEDRKPKAEEDEILNRSPRNRKPRRE
